# Measurements as given in paper PMC12040169 (PLOS Biology, 2025).
# The list shows a part of the results.
# System: T1, CTL2-GFP (C. trachomatis L2/434/Bu, GFP-expressing)
# T1 construct: L2/434/Bu, GFP-expressing
# Set-up: species or system HeLa; Intracellular C. trachomatis growth in HeLa cells, bulk GFP fluorescence relative to DMSO
# Conditions: bulk GFP, single well; 28.5 h, 10 µM; inhibitor
row,Structure (SMILES),% of control remaining [%]
1,O=S(=O)(NCCc1ccccc1)c1cccc2nsnc12 [CBK261128],109.429
2,CC[C@H](C)[C@H](NC(N)=O)C(=O)Nc1ccc(F)c([N+](=O)[O-])c1 [CBK297489],112.064
3,CCC(=O)N1CCC(c2nc(Cc3cccs3)no2)C1 (centres unmarked) [CBK282968],106.673
4,Cc1cccc(NC(=S)N/N=C/c2sccc2C)c1 [CBK022228],104.905
5,Cc1nc(CC(=O)N2CCOC(c3ccc(F)cc3)C2)cs1 (centres unmarked) [CBK305759],110.085
6,Cc1cc(C)cc(NC(=O)Cc2cc(=O)[nH]c(SCc3ccccc3)n2)c1 [CBK287842],132.658
7,COc1ccc(N(C(C)C(=O)Nc2ccc(Cl)c(Cl)c2)S(C)(=O)=O)cc1 (centres unmarked) [CBK266872],101.253
8,CN1CCN(C(c2cccs2)c2nnnn2C(C)(C)C)CC1 (centres unmarked) [CBK141702],114.697
9,O=c1[nH]nc2cc(SCc3ccc(Cl)cc3)ncn12 [CBK300540],137.127
10,OCC1(CNc2ncc(F)c(N3CCCC3)n2)CCOCC1 [CBK306647],45.2411
11,c1ccc(CCN2CCN(c3nccnc3OCC3COc4ccccc4O3)CC2)cc1 (centres unmarked) [CBK082794T],112.207
12,CC(=O)Nc1ccc(C(=O)N2CCCC(c3cccc(Cc4ccccc4Cl)n3)C2)cc1 (centres unmarked) [CBK286126],124.824
13,CCN(Cc1cn2ccc(C)cc2n1)CC1CCOCC1 [CBK306680],112.834
14,Cc1nc(C2CCN(C(=O)CCc3ccno3)CC2)c2sccn12 [CBK282239],151.894
15,[N-]=[N+]=NC1C2OCC(O2)C(OCc2ccccc2)C1O (centres unmarked) [CBK261000],100
16,CCNc1cccnc1N1CCN(CCc2cc(C)c(O)c(C)c2)CC1 [CBK024361C],142.491
17,COC(=O)c1c(NC(=O)Cn2ccc([N+](=O)[O-])n2)sc2c1CCCC2 [CBK268960],126.664
18,CC(=O)Nc1ccc(S(=O)(=O)N2CCN(C(=O)c3ccco3)CC2)cc1 [CBK068319],141.531
19,O=C(NCc1ccc(Cl)cc1)N(Cc1cccnc1)Cc1ccc2c(c1)OCO2 [CBK159449],107.246
20,Cc1cccc(C2(O)CCN(CC(O)c3ccc(F)cc3)CC2)c1 (centres unmarked) [CBK282504],136.631
21,COc1ccc(-c2nc3cc(NC(=O)c4ccccc4Br)ccc3o2)cc1 [CBK264953],127.722
22,O=C(Cn1cnc2c(cnn2-c2ccc(F)cc2)c1=O)NCc1ccccc1 [CBK287538],133.943
23,Cn1ccc(C(=O)N2CCCC(c3cc4ncccc4[nH]3)C2)n1 (centres unmarked) [CBK283412],128.086
24,CCN(CC)C(=O)c1sc2ncccc2c1NS(=O)(=O)c1c(C)noc1C [CBK050617],87.9602
25,CC(NC(=O)C1CCN(Cc2cccnc2)CC1)c1ccc(F)cc1 (centres unmarked) [CBK148032],124.072
26,Cc1ccc(S(=O)(=O)N2CCN(C(=O)c3ccco3)CC2)cc1 [CBK068166],124.443
27,O=S(=O)(/C=C/c1ccccc1)Nc1cccc2[nH]ccc12 [CBK155772],92.6216

# Part of the list above, reformatted.
row | Structure (SMILES) | % of control remaining [%]
4 | Cc1cccc(NC(=S)N/N=C/c2sccc2C)c1 [CBK022228] | 104.905
5 | Cc1nc(CC(=O)N2CCOC(c3ccc(F)cc3)C2)cs1 (centres unmarked) [CBK305759] | 110.085
6 | Cc1cc(C)cc(NC(=O)Cc2cc(=O)[nH]c(SCc3ccccc3)n2)c1 [CBK287842] | 132.658
7 | COc1ccc(N(C(C)C(=O)Nc2ccc(Cl)c(Cl)c2)S(C)(=O)=O)cc1 (centres unmarked) [CBK266872] | 101.253

# The listing continues:

row,Structure (SMILES),% of control remaining [%]
1,COc1ccc(-c2cc(CC3(NCc4ccccc4O)COC3)no2)cc1 [CBK289697],121.38
2,CN1C2CCC1CC(OC(=O)CCN1CCCC1)C2 (centres unmarked) [CBK261466],129.36
3,Cc1ccc(C(CC(=O)O)NC(=O)c2ccc(C)c(S(=O)(=O)N3CCCCC3)c2)cc1 (centres unmarked) [CBK297095],160.934
4,COc1cccc2c3c([nH]c12)C1(CCCN(CCc2ccc(F)cc2)C1)NCC3 (centres unmarked) [CBK039251],107.69
5,O=C(NCc1ccc2c(c1)OCO2)C1(c2ccccc2)CCCC1 [CBK149530],107.16
6,CCCNC(=O)Cn1nc(-c2cc3c(s2)CCC3)oc1=O [CBK284713],168.46
7,O=C(CCn1ccc2ccc(F)cc21)NC[C@H]1CC[C@H](C(=O)O)CC1 [CBK286666],129.931
8,O=C(O)C1CCN(Cc2ccc(Cl)cc2)CC1 [CBK286895],108.141
9,COc1ccc(CC(=O)NNC(=O)c2ccc(C(C)(C)C)cc2)cc1 [CBK261700],101.774
10,Nc1ncc(-c2ccccc2)nc1NCc1cccnc1 [CBK063452],109.593
11,CCCC(=O)c1ccc(S(=O)(=O)N2CCCN(Cc3c[nH]nc3-c3ccc(F)cc3)CC2)cc1 [CBK062911],96.1032
12,Cc1ccccc1CC(=O)N1CCCC1c1n[nH]cc1-c1ccncc1 (centres unmarked) [CBK283431],164.268
13,COc1ccccc1C1CC(c2ccccc2)=NN1C(=O)CCC(=O)O (centres unmarked) [CBK287088],106.375
14,O=C(Cc1ncc(C(F)(F)F)cc1Cl)NO [CBK007437],144.802
15,CCOC(=O)c1cnc2c(C)cc(Cl)cc2c1N1CCN(Cc2ccccc2)CC1 [CBK265975],83.9977
16,OCCOc1ccccc1-c1nnco1 [CBK001972],102.289
17,CC(C)(C)c1ccccc1[S+]([O-])c1cc2c(N3CCNCC3)nccc2s1 (centres unmarked) [CBK200018C],100.114
18,Oc1ccc(Nc2ncnc3scc(-c4ccccc4)c23)cc1 [CBK269146C],130.122
19,CC1CCC(N2CCN(Cc3ccccn3)CC2)CC1 (centres unmarked) [CBK263473],100
20,CC(=O)N(C)c1ncc(Br)cc1C(=O)NCC1COc2ccccc2O1 (centres unmarked) [CBK076558],120.145
21,Cc1ccc(NCc2nc3ccccc3n2Cc2ccccc2)cc1C [CBK263756],113.745
22,CC(C)CC(=O)N1CCc2c([nH]c3ccccc23)C12CCN(Cc1ccccc1)C2 (centres unmarked) [CBK059459],119.417
23,Cc1ccc(C(=O)Nc2cccc(OC(=O)c3cc(S(=O)(=O)N4CCCCC4)ccc3Cl)c2)cc1 [CBK261368],44.4839
24,CCc1noc(C)c1C(=O)N1CCC(NC)C1 (centres unmarked) [CBK304299C],116.826
25,O=C(COc1ccccc1)NC(=S)Nc1cccc(-c2nc3ccccc3s2)c1 [CBK264360],100
26,Cc1c(S(=O)(=O)NCc2ccc(C(F)(F)F)c(F)c2)cnn1-c1ccccc1 [CBK062115],157.391
27,CN1[C@@H](CCC(=O)N2CCOCC2)CNC(=O)[C@@H]2[C@H]1CCN2C1CCCCC1 [CBK289032],134.619

row,Structure (SMILES),% of control remaining [%]
1,c1ccc(OCc2nc3c4c(-c5ccccc5)c(-c5ccccc5)oc4ncn3n2)cc1 [CBK262939],100
2,Cc1nn(Cc2ccccc2)c(C)c1C(=O)N(C)C [CBK015942],127.503
3,Cc1cc(C)cc(N(CC(=O)O)S(C)(=O)=O)c1 [CBK263775],88.8715
4,Cc1nn(C)c(N2CCNCC2)c1NC(=O)c1cccs1 [CBK050303T],126.991
5,Cc1ccc(S(=O)(=O)NC(C)(C)CSc2nncn2C)cc1 [CBK266366],141.264
6,COCc1cccc(-c2ncc(OCC3COc4ccccc4O3)nc2N)c1 (centres unmarked) [CBK145113],100.064
7,Cc1ccnc2nc(C(=O)OC(C)C(=O)NC3CC3)nn12 (centres unmarked) [CBK304998],140.62
8,CC(=O)Nc1nc(OCCOc2ccccc2)cnc1-c1cnn(C)c1 [CBK145425],114.115
9,CC(C)CCCC(=O)n1c(=O)n(CCc2c[nH]c3ccccc23)c2ccccc21 [CBK106513],126.396
10,CCSc1ncc(Cl)c(C(=O)N(Cc2cccc(Br)c2)C2CCS(=O)(=O)C2)n1 (centres unmarked) [CBK268969],138.052
11,CN1C(=O)COc2ccccc2C/C=C/C[C@H]2CNCC[C@H]21 [CBK292076],116.472
12,CC(=O)Nc1cccc(-n2nnnc2SC2CCCC2)c1 [CBK305996],155.901
13,CCC1c2ccsc2CCN1CC(O)COCc1ccco1 (centres unmarked) [CBK303992],164.061
14,O=S(=O)(N1CCCCCC1)N1CCN(S(=O)(=O)N2CCCCC2)CC1 [CBK269001],82.1185
15,CN(c1ccccc1)S(=O)(=O)c1cccc(NC(=O)Cc2csc(-c3ccco3)n2)c1 [CBK297792],155.828
16,Cc1cccc(-c2n[nH]c(=S)n2CCC(=O)Nc2ccc(N3CCCC3=O)c(C)c2)c1 [CBK296733],124.498
17,CC(Oc1ccc(Cl)cc1Cl)C(=O)Nc1ccc(OCC(=O)O)cc1 (centres unmarked) [CBK266542],168.802
18,FC(F)(F)c1cccnc1OCCCc1ccncc1 [CBK115782],96.7729
19,CCCCNCCn1cnc2c(N)ncnc21 [CBK057447],135.982
20,O=C(C1CCCO1)N1CCCCCC1c1cc(-c2cccs2)on1 (centres unmarked) [CBK284340],89.5643
21,O=[N+]([O-])c1cc([N+](=O)[O-])c(Nc2ccncc2)c([N+](=O)[O-])c1Nc1ccncc1 [CBK278276],101.094
22,O=C1c2ccccc2C(=O)N1CCCN1CCN(CCCN2C(=O)c3ccccc3C2=O)CC1 [CBK260963],116.412
23,Clc1cccc(-c2cncc(NCC3CCOCC3)n2)c1 [CBK037237],168.046
24,O=C(O)c1ccc(/C=N/N2CCN(Cc3ccccc3)CC2)cc1 [CBK265344],119.48
25,CN(CCCN1CCCCC1)C(=O)C1Cc2cc(Cl)ccc2O1 (centres unmarked) [CBK282162],102.422
26,O=C(NCCN1CCOCC1)c1cccc(S(=O)(=O)N2CCCCCC2)c1 [CBK266668],173.811
